Laboratory results reported in PubChem BioAssay AID1259415 (National Center for Advancing Translational Sciences (NCATS), 2018).
In all, about 410,000 compounds went through this assay and about 18,000 (4.4%) were called active. The inconclusive results got no clear call from the source; some entries with a clear call stand among them for comparison. No stated cut-off is given here; in the data, active means activity change below about -60%; inconclusive means no clear call, values can overlap the other calls; inactive means above about -39%.
On the % scale 0 is the no-effect control and ±100 the full control effect.

Test: qHTS Assay for inhibitors of the human cytomegalovirus (HCMV)
Conditions: HFF cells, HCMV-luciferase reporter, 72 h; at 57.5 µM; hits give low values
Summary of the method: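 Compounds were evaluated in HFFs infected with an HCMV luciferase reporter virus (MOI 1 PFU/cell). Luciferase in lysates collected 72 h post infection served as the replication measure.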
With `O=C(CSc1n[nH]c(-c2ccncc2)n1)NCCc1ccccc1` the activity change, negative = inhibition was inconclusive: -58.5%. With `O=C(Nc1ccc(Cl)cc1)c1ccc2c(c1)N(Cc1ccccc1)CCS2` the activity change, negative = inhibition was inactive: -2.2%. In the case of `Cc1cc(C)c(NS(=O)(=O)c2ccc3c(c2)oc(=O)n3C)c(C)c1`, the activity change, negative = inhibition is reported as inconclusive: -42.6%. With `CC(=O)C1=C(O)C(=O)N(c2cccnc2)C1c1ccc([N+](=O)[O-])cc1` (stereo not given) the activity change, negative = inhibition was inconclusive: -45.1%. For `COc1cc2c(cc1OC)CN(C(=O)COc1ccccc1C#N)CC2`, the activity change, negative = inhibition was inactive: 80.9%. In the case of `CC1=C(C(=O)Nc2ccccn2)C(c2ccc(Cl)cc2Cl)NC(=S)N1` (stereo not given), the activity change, negative = inhibition is reported as inconclusive: -45.2%. In the case of `O=C(N[C@@H](Cc1cccnc1)C(=O)N1CCC[C@H]1C(=O)NCCc1ccccc1Cl)C1CCCC1`, the activity change, negative = inhibition is reported as inconclusive: -43.5%. With `COC(=O)c1cc(OC)c(OC)cc1NCC(=O)Nc1cccc(C(F)(F)F)c1` the activity change, negative = inhibition was inconclusive: -50.4%. For `CCOC(=O)C1=CCN(S(=O)(=O)c2cccc(Cl)c2)C1c1ccc(Cl)c(Cl)c1` (stereo not given), the activity change, negative = inhibition was inactive: -14.9%. For `Cc1ccc(S(=O)(=O)N2CCCC2C(=O)Nc2nc3c(s2)CCCC3)cc1` (stereo not given), the activity change, negative = inhibition was inconclusive: -44.4%. In the case of `CC(CO)(CO)NCc1ccc(-c2ccccc2)cc1`, the activity change, negative = inhibition is reported as inconclusive: -47.2%. With `CCCOC(=O)c1ccc(-[n+]2c(-c3ccccc3)cc(-c3ccccc3)cc2-c2ccccc2)cc1` the activity change, negative = inhibition was active: -97.6%. In the case of `COc1ccc(N2CCN(C(=O)CC(C)S(=O)(=O)c3ccc4c(c3)NC(=O)CO4)CC2)cc1` (stereo not given), the activity change, negative = inhibition is reported as inconclusive: -58.8%. For `CCCOC(=O)c1c(-c2ccccc2)c(-c2ccccc2)nn(C)c1=O`, the activity change, negative = inhibition was inactive: -17.4%. In the case of `Cc1cc(OCc2cc(C(=O)NCc3csc(C(C)C)n3)no2)cc(C)c1Cl`, the activity change, negative = inhibition is reported as inactive: -19.9%. For `COc1ccccc1/C=C/C=N/NC(=O)Cc1cccs1`, the activity change, negative = inhibition was inactive: 21.3%. With `Cc1nccn1C[C@@H]1CCc2c(c3ccccc3n2C)C1=O` the activity change, negative = inhibition was inconclusive: -46.5%. With `CCOc1ccc(S(=O)(=O)Nc2cc3c(C(=O)OCc4ccccc4)c(C)oc3c3ccccc23)cc1` the activity change, negative = inhibition was active: -84%. In the case of `COc1ccc(C2=NOC(Cn3nc(C(=O)O)cc3-c3ccccc3)C2)cc1` (stereo not given), the activity change, negative = inhibition is reported as inactive: -29.7%. For `Cc1cccc(N2C(=O)/C(=C/c3ccc(N4CCN(C)CC4)o3)C(=O)NC2=S)c1C`, the activity change, negative = inhibition was active: -64%. For `COc1ccccc1CNC(=O)c1cccc(NC(=O)c2ccccc2)c1`, the activity change, negative = inhibition was inconclusive: -42%. For `COc1ccc(-n2c(C)cc(C(=O)COC(=O)c3cc(NC(=O)c4cccs4)c(OC)c(OC)c3)c2C)cc1`, the activity change, negative = inhibition was inconclusive: -55.5%. In the case of `O=C(O)c1cn(Cc2ccccc2)c2ccccc2c1=O`, the activity change, negative = inhibition is reported as inconclusive: -52.1%. In the case of `CC(C)C(OC(=O)CCC(=O)Nc1nccs1)C(=O)NC1CCCCC1` (stereo not given), the activity change, negative = inhibition is reported as inconclusive: -42.8%. In the case of `CCCC(=O)Nc1ccc(-c2csc(NNC(C)=O)n2)cc1`, the activity change, negative = inhibition is reported as inconclusive: -42%. In the case of `O=C(Nc1cn(-c2ccccc2)nc1-c1ccc(F)cc1)c1ccccc1`, the activity change, negative = inhibition is reported as active: -60.7%. With `CCCSc1oc(-c2ccco2)nc1S(=O)(=O)c1ccc(C)cc1` the activity change, negative = inhibition was inconclusive: -59.7%. For `Cn1c(=O)n(C)c2cc(CNCc3ccccc3Cl)ccc21`, the activity change, negative = inhibition was inactive: 11.1%. For `Cc1ccc(-n2nc3c(N4CCCC(C(=O)NCc5ccccc5C)C4)nnc(C)c3c2C)cc1` (stereo not given), the activity change, negative = inhibition was active: -63.5%. For `CC(=O)OCC=C1CCC2C3CCC4=CC(=O)CCC4(C)C3C(O)CC12C` (stereo not given), the activity change, negative = inhibition was inconclusive: -49.6%. For `Cc1ccc(NS(=O)(=O)c2sc3ccc(Cl)cc3c2C)cc1`, the activity change, negative = inhibition was inconclusive: -53.4%. In the case of `CC1CCc2nc(NC(=O)c3cc(C(C)(C)C)nn3C)sc2C1` (stereo not given), the activity change, negative = inhibition is reported as inactive: 22.6%. In the case of `O=C1c2ccccc2C(=O)N1CSc1nnc(Nc2ccccc2)s1`, the activity change, negative = inhibition is reported as inconclusive: -50.2%. For `COC(=O)c1c(NC(=O)CS(=O)(=O)c2ccc(C)cc2)sc2c1CCCCC2`, the activity change, negative = inhibition was inconclusive: -44%. In the case of `COc1cccc(CN2CCc3[nH]c(=S)[nH]c(=O)c3C2)c1`, the activity change, negative = inhibition is reported as inconclusive: -40.6%. For `COc1ccc(-c2csc3ncnc(Nc4ccc(O)cc4)c23)cc1`, the activity change, negative = inhibition was inconclusive: -48.6%. In the case of `O=c1c2ccccc2c(-c2ccc(O)cc2)nn1-c1cccc(C(F)(F)F)c1`, the activity change, negative = inhibition is reported as inconclusive: -53.5%. With `Cc1cc2oc(C(=O)Nc3ccc(S(=O)(=O)N(C)Cc4ccccc4)cc3)cc(=O)c2cc1C` the activity change, negative = inhibition was inactive: -3.86%. In the case of `Cc1cc(=O)n(C(C)c2ccccc2)n1C(C)c1ccccc1` (stereo not given), the activity change, negative = inhibition is reported as inconclusive: -48.2%. In the case of `Cc1nc(CCl)cc(=O)[nH]1`, the activity change, negative = inhibition is reported as inconclusive: -50.4%. For `COc1ccc(S(=O)(=O)N2CCOCC2)cc1Br`, the activity change, negative = inhibition was inactive: -19.8%. With `S=C1SCN(CCc2ccccc2)CN1CCc1ccccc1` the activity change, negative = inhibition was inconclusive: -53.8%. With `COc1ccc(NC(=O)CSc2nnc3n2CCCCC3)cc1S(=O)(=O)N1CCOCC1` the activity change, negative = inhibition was inactive: -28.9%. With `O=S(=O)(Nc1cccc(-n2cnnn2)c1)c1cnc(Cl)c(Cl)c1` the activity change, negative = inhibition was inconclusive: -45%. In the case of `COc1cc(-c2cc3n(C)c(C)c(CCC(=O)O)c(=O)n3n2)cc(OC)c1OC`, the activity change, negative = inhibition is reported as inactive: 4.19%. In the case of `Cc1nc2c(cnn2-c2ccccc2Cl)c(=O)n1-c1ccc(N2CCC(C)CC2)cc1`, the activity change, negative = inhibition is reported as active: -63%. With `O=c1cc(CN2CCN(c3ccccc3)CC2)c2cc(O)c(-c3ccccc3)cc2o1` the activity change, negative = inhibition was inconclusive: -53.4%. In the case of `CC(=O)c1sc2c(c1OC(=O)c1ccc(Cl)cc1Cl)c(=O)n(-c1ccccc1)c(=S)n2-c1ccccc1`, the activity change, negative = inhibition is reported as inconclusive: -46.7%. With `N#Cc1ccc(S(=O)(=O)N2CCC(C(=O)N3CCN(Cc4ccc5c(c4)OCO5)CC3)CC2)cc1` the activity change, negative = inhibition was inconclusive: -53%. With `COc1cccc(CNC(=O)COc2cc3c(c4oc(=O)cc(C)c24)CCC(C)(C)O3)c1` the activity change, negative = inhibition was inconclusive: -44.1%. For `CCOc1ccc2nc(N(CCCN(C)C)C(=O)c3ccc(S(=O)(=O)N4CCc5ccccc5C4)cc3)sc2c1`, the activity change, negative = inhibition was inactive: -5.12%. With `CCc1ccc(C(O)(C(C)C)C(CN2CCOCC2)c2ccccc2)cc1` (stereo not given) the activity change, negative = inhibition was active: -76.6%. With `CCCOc1ccc(C(O)C(CN2CCOCC2)c2ccccc2)cc1` (stereo not given) the activity change, negative = inhibition was inconclusive: -44.9%. With `COCC(C)NC(=O)c1ccc2c(c1)S(=O)(=O)c1ccccc1C2=O` (stereo not given) the activity change, negative = inhibition was inconclusive: -51.4%. For `NC(=S)N/N=C1\CC(n2nnn(-c3cccc(Cl)c3)c2=S)C2COC1O2` (stereo not given), the activity change, negative = inhibition was inactive: -24.2%. With `Cc1ccc(N2CCN(C(=O)C3CCN(S(=O)(=O)c4ccc5c(c4)oc(=O)n5C)CC3)CC2C)cc1` (stereo not given) the activity change, negative = inhibition was inactive: -10.6%. With `NNc1nccc(Nc2ccccc2C(=O)O)n1` the activity change, negative = inhibition was inconclusive: -49.4%. In the case of `CCOC(=O)C1C(C(=O)OCC)C(C)(C)C1N(C)C` (stereo not given), the activity change, negative = inhibition is reported as inactive: 30.2%. With `COC(=O)C1=C(c2ccc(F)cc2OCc2ccccc2)C[C@@H]2CC[C@H]1N2C(=O)NCc1ccc(C(F)(F)F)cc1` the activity change, negative = inhibition was inconclusive: -50.9%. In the case of `CN(C)C(CNC(=O)c1ccc(S(=O)(=O)Nc2ccccc2F)cc1)c1ccccc1` (stereo not given), the activity change, negative = inhibition is reported as inactive: 14.7%. With `S=C(NCc1ccco1)Nc1ccc(Oc2ccc(Cl)cc2)cc1` the activity change, negative = inhibition was active: -60.3%. In the case of `COc1ccc(C(=O)NC2CCCc3c2cnn3-c2cccc(C)c2C)o1` (stereo not given), the activity change, negative = inhibition is reported as active: -93%. With `CCN1CCN(C(=S)NC(=O)c2cccs2)CC1` the activity change, negative = inhibition was inconclusive: -44%. With `Cc1ccc2nc3c(c(Nc4ccccc4)c2c1)CCC3` the activity change, negative = inhibition was inconclusive: -41.5%. In the case of `Cc1nn(-c2ccccc2)c(C)c1NC(=O)COc1ccc(F)cc1Cl`, the activity change, negative = inhibition is reported as inconclusive: -47.3%. In the case of `OCCc1ccc(O)c(-n2nc3ccccc3n2)c1`, the activity change, negative = inhibition is reported as inconclusive: -56.5%. In the case of `CN(C)CCC(=O)N1C/C(=C/c2ccccc2)C(=O)/C(=C\c2ccccc2)C1`, the activity change, negative = inhibition is reported as active: -97.9%. In the case of `CCOC(=O)N1CCc2c(sc3c2c(=O)n(-c2ccccc2)c(=O)n3CC(=O)Nc2ccc(OC)cc2OC)C1`, the activity change, negative = inhibition is reported as inactive: 13.9%. In the case of `Fc1ccccc1-c1nc(NCCCN2CCOCC2)c2ccccc2n1`, the activity change, negative = inhibition is reported as inactive: -21.5%. For `COc1ccccc1CNC(=O)c1ccc(Cn2c(SCc3ccccc3)nc3cccnc32)cc1`, the activity change, negative = inhibition was inactive: -17.3%. In the case of `CCOC(=O)c1c(CNCCN(CC)CC)n(C)c2cc(Br)c(OC)cc12`, the activity change, negative = inhibition is reported as inactive: 3.51%. For `CC1CN(S(=O)(=O)c2cccc(-c3csc(-c4ccccc4)n3)c2)CC(C)O1` (stereo not given), the activity change, negative = inhibition was inconclusive: -44.9%. In the case of `COC(=O)CNC(=O)c1ccc(C)s1`, the activity change, negative = inhibition is reported as active: -102%. In the case of `O=C(CCc1ccccc1)NCc1nc2cccnc2n1Cc1ccc(F)cc1`, the activity change, negative = inhibition is reported as inconclusive: -43.2%. In the case of `C[C@@H]1CN([C@@H](C)CO)C(=O)CCCn2nncc2CO[C@H]1CN(C)C(=O)c1ccncc1`, the activity change, negative = inhibition is reported as inactive: -7.24%. In the case of `CS(=O)(=O)N(C(=O)NC(=O)NC12CC3CC(CC(C3)C1)C2)C1CCCCC1`, the activity change, negative = inhibition is reported as active: -63.9%. In the case of `O=C(c1c[nH]c(C(=O)N2CCN(Cc3ccccc3)CC2)c1)C1CCCCC1`, the activity change, negative = inhibition is reported as inactive: -28.4%. With `COc1cccc(C(=O)NC(=O)Nc2nc(C)cc(C(F)(F)F)n2)c1` the activity change, negative = inhibition was inconclusive: -45%. With `Cc1noc(C(=O)Nc2cccc(Cl)c2)c1Cl` the activity change, negative = inhibition was inactive: 52.4%. With `Cc1cc(Cl)ccc1NC(=O)c1cccc(NC(=O)N2CCSc3ncccc32)c1` the activity change, negative = inhibition was inconclusive: 0%. For `O=C(N/N=C/C(Cl)=C/c1ccc([N+](=O)[O-])cc1)C(=O)Nc1ccccc1C(=O)O`, the activity change, negative = inhibition was inactive: -32.1%. In the case of `COc1ccc(NC(=O)CC2C(=O)N(Cc3ccccc3)C(=S)N2CCN2CCOCC2)cc1` (stereo not given), the activity change, negative = inhibition is reported as inconclusive: -46.4%. For `CCOC(=O)N1CCN(c2ccc(F)cc2[N+](=O)[O-])CC1`, the activity change, negative = inhibition was inconclusive: -50.3%. In the case of `Cc1ccc(NC(=O)CCCn2c(=O)c3cccn3c3ccccc32)c(Cl)c1`, the activity change, negative = inhibition is reported as inconclusive: -53.8%. In the case of `CCc1ccc(/C=N/n2c(C3CCCCC3)n[nH]c2=S)cc1`, the activity change, negative = inhibition is reported as inconclusive: -58%.
